Values quoted from earlier work in patent publication US12097222B2, “Methods for attenuating viral infection and for treating lung injury” (Spiritus Therapeutics, Inc., priority 2019, dated 2024).
For at least one compound, name, drawing or mass did not settle the structure.

Tested on: MSC migration
Details: cited from earlier work

**Q.** Which “effect on IGF-1-induced increase in MSC migration in response to SDF-1” value does the source give for `O=c1cc(N2CCOCC2)oc2c(-c3ccccc3)cccc12` [LY294002] here?
**A.** The value was “attenuated”.
